# Patent US20120270774A1, “MACROCYCLIC COMPOUNDS, COMPOSITIONS COMPRISING THEM AND METHODS FOR PREVENTING OR TREATING HIV INFECTION” (Yissum Research Development Company of the Hebrew …, priority 2009, published 2012)
# For at least one compound, name, drawing or mass did not settle the structure.
# Experiment: Permeability ex-vivo, Ussing side by side diffusion chamber
# Format: in vitro ADME, Wistar rats
# Conditions: Ussing model
smiles,measurement,setting,value
N=C(N)NCCCC1NC(=O)CCCCCC(=O)NC(Cc2ccccc2)CN(CC(N)=O)C1=O (centres unmarked) [CG-1],Papp A-B,A-B,1.47*10-5
same,Papp B-A,B-A,2.86*10-6
